Values joined by “and” are separate entries in the source; they are usually repeats but may differ in a detail not shown here. Equal values may be shown once. In all, about 310,000 compounds went through this assay and about 17,000 (5.5%) were called active. Inconclusive means that the source gave no clear call. Such entries were picked first, then a sample of the others. Calls follow the shape of the dose curve; as a rule, active = well fitted inhibition curve with a large enough effect; inconclusive = small, poorly fitted or top-dose-only effect, or effect the other way; inactive = no such curve, though single readings can be large or run the other way. Potencies beside an inconclusive call are fits to weak or partial responses and may not hold up.
Biological target: Nuclear receptor ROR-gamma (Mus musculus) (UniProt P51450)
Assay: qHTS for inhibitors of ROR gamma transcriptional activity; also: nearly all actives have a fitted effect of over 60% in size
Settings: Drosophila S2 Gal4-RORgamma UAS-luciferase reporter, 20 h; activity change, negative = inhibition: at 53.6 µM (top of the series)
Summary of the method: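 Luminescence from a UAS-regulated Photinus luciferase reporter in stably transfected Drosophila Schneider cells is measured; decreased signal marks ROR gamma inhibition. Fusion expression is induced by 700 uM copper sulfate for 20 hr.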
% is scaled to controls: 0 for no effect and ±100 for the full control effect; potency is read from the fitted curve at half-maximal effect.

By UniProt entry, the sequences of proteins in these tests, tags left out. Where a name states a change or a piece, a line headed by the entry shows the natural chain unless it says otherwise.
UniProt P51450: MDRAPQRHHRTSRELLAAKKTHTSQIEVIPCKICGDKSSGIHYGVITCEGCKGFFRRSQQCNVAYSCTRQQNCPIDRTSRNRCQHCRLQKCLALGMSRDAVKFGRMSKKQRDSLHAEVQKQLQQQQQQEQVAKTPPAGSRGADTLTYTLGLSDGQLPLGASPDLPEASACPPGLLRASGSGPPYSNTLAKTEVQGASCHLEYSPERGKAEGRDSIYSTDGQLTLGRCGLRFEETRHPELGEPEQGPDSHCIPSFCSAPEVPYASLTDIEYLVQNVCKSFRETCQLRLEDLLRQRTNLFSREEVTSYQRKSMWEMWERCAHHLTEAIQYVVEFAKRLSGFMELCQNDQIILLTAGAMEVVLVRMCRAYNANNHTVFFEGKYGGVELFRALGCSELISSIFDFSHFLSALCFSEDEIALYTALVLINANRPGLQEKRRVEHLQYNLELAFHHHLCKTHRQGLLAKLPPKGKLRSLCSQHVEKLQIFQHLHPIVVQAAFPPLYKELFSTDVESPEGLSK

SMILES	Potency	activity change, negative = inhibition
CN(C(=S)NC1CCCCC1)C1(c2ccccc2Cl)CCCCC1=O (centres undefined)	active: 12.6 µM	–
O=S(=O)(c1ccc(Cl)s1)N1CCN(c2ncccn2)CC1	–	inactive: -38.9%
O=C1c2ccccc2C(=O)N1CCOc1ccc(F)cc1	inconclusive: 0.708 µM [activator, full curve]	–
CC1CCN(CCC(=O)N2CCCc3c2c(=O)oc2ccc(O)cc32)CC1	inconclusive: 22.4 µM [inhibitor, single point]	–
O=C(Nc1ccc2c(c1)OCO2)N1CCN(c2ncc(C(F)(F)F)cc2Cl)CC1	inconclusive: 20 µM [activator, partial curve]	–
CC(=O)Nc1cccc(N(C)C)c1	–	inactive: -19.7% [at 10 µM]
CC(C)NC(=S)NC(=O)c1ccc(-c2ccccc2)cc1	active: 2.51 µM	–
Cc1csc2nc(CNC(=O)CCC(=O)O)cn12	inconclusive: 35.5 µM [activator, single point]	–
Cc1cc(C)c(C)c(C(=O)CSc2nnc(-c3ccc4[nH]c(C)c(C)c4c3)o2)c1C	inconclusive: 14.1 µM [inhibitor, single point]	–
Cc1noc(C)c1-c1ccc2ncnc(N3CCC(C(=O)O)CC3)c2c1	–	inactive: -31.1%
COc1cc(NC(=O)CN(C)S(=O)(=O)c2ccc3nc(C)sc3c2)cc(OC)c1	inconclusive: 11.2 µM [activator, partial curve]	–
COCCNC(=O)c1cc(-c2ccc(Cl)c(Cl)c2)on1	inconclusive: 0.178 µM [activator, full curve, poor fit]	–
OCC1O[C@@H](OC2C(O)C(CO)O[C@@]2(CO)O[C@@H]2OC(CO)C(O)C(O)C2O)C(O)C(O)C1O (some centres undefined)	–	inactive: -11.7%
COc1ccccc1C1CCCN1Cc1nc(-c2ccc(C)s2)oc1C (centres undefined)	inconclusive: 12.6 µM [inhibitor, partial curve, poor fit]	–
Cc1nc2ccccc2c(=O)n1/N=C/c1c(O)ccc2oc3c(c12)CCCC3	inconclusive: 31.6 µM [inhibitor, single point]	–
Cc1nc(-c2ccccn2)sc1C(=O)Nc1ccc(F)cc1F	–	inactive: 14.3%
Cc1nc(C)c(-c2csc(Nc3ccc(C(=O)O)c(O)c3)n2)s1	inconclusive: 35.5 µM [activator, single point]	–
CC1Sc2ccc(S(=O)(=O)N3CCC(C(=O)Nc4ccc(Cl)cc4)CC3)cc2NC1=O (centres undefined)	inconclusive: 35.5 µM [inhibitor, single point]	–
CC1Cc2nc(SCC(=O)NCc3ccco3)n(Cc3ccccc3)c(=O)c2S1 (centres undefined)	inconclusive: 25.1 µM [activator, partial curve]	–
CCC1=C(OC(=O)N(CC)CC)N2C(=O)OC(=NCC3CC3)[C@]2(Cc2ccccc2)[C@H]2C1=CC[C@H]1C(=O)N(c3ccccc3)C(=O)[C@H]12	inconclusive: 5.62 µM [activator, partial curve]	–
CCOC(=O)CN1C(=O)S/C(=C\c2ccc3c(c2)OCO3)C1=O	inconclusive: 5.62 µM [activator, partial curve, poor fit]	–
O=C(NC(=S)N(CCO)Cc1ccccc1)c1ccc(S(=O)(=O)N2CCCC2)cc1	active: 2.24 µM	–
Cc1cc(OCC(=O)Nc2cccnc2)c2c(C)cc(=O)oc2c1	–	inactive: -9.31%

SMILES	Potency	activity change, negative = inhibition
COc1cc2c(cc1NC(=O)c1cncc(Br)c1)oc1ccccc12	–	inactive: 4.98%
Clc1ccc(C2=Nn3c(nnc3-c3cc(-c4ccccc4)n[nH]3)SC2)cc1	inconclusive: 35.5 µM [inhibitor, single point]	–
CC(C)Nc1ncnc2c1cnn2Cc1ccccc1Cl	inconclusive: 3.16 µM [inhibitor, single point]	–
COc1ccc(NC(=O)c2ccc3c(c2)OCCO3)cc1OC	inconclusive: 35.5 µM [inhibitor, single point]	–
Cc1ccc(N/N=C/c2ccc(N3CCOCC3)cc2)cc1C	inconclusive: 14.1 µM [inhibitor, partial curve]	–
COc1cc2c(cc1OC)-c1cc(NC3CCCC3)nc(=O)n1CC2	inconclusive: 12.6 µM [inhibitor, single point]	–
Cc1nc(N/N=C/c2cccc(F)c2)cc(N2CCOCC2)n1	–	inactive: 33.2%
Cc1cccc2cc(CNCC3CCCO3)c(Cl)nc12 (centres undefined)	–	inactive: 9.16%
COc1cc(C(=O)NNC2=NC(C)(C)Cc3cc(C)c(C)cc32)cc(OC)c1OC	inconclusive: 20 µM [inhibitor, single point]	–
O=C(Nc1nnc(C2CC2)o1)c1ccc(S(=O)(=O)N2CCc3ccccc3C2)cc1	active: 0.708 µM	–
Clc1ccccc1-c1nccc(-n2ccnc2)n1	–	inactive: -21.9%
CCC(C)C(NS(=O)(=O)c1ccc(C)cc1)C(=O)NCCCN1CCOCC1 (centres undefined)	–	inactive: -4.22%
Cc1ccc(-c2nnc(SCC(=O)NC(=O)Nc3ccc(C)cc3C)n2N)cc1	inconclusive: 0.199 µM [activator, partial curve, poor fit]	–
NC(=S)N/N=C/c1c[nH]c2ccc(OCc3ccccc3)cc12	active: 5.01 µM	–
CCOC(=O)N1CCC(c2nc(C)sc2C(=O)O)CC1	–	inactive: -12%
C=C(C)CN=c1scc(C)n1/N=C/c1ccco1	inconclusive: 0.891 µM [inhibitor, single point]	–
N#Cc1ccc(-c2csc(NC(=O)/C=C/c3cccs3)n2)cc1	inconclusive: 35.5 µM [activator, single point]	–
C/C(=N\NC(=O)c1c(Br)c(C)nn1C)c1cccc(NC(=O)C2CCC2)c1	inconclusive: 11.2 µM [activator, partial curve, poor fit]	–
Cc1ccc(S(=O)(=O)N(C)C)cc1NC(=O)COC(=O)/C(=C/c1ccc(F)cc1)c1cccs1	inconclusive: 12.6 µM [activator, partial curve]	–
CCC(=O)NC(=S)Nc1ccc(N2CCOCC2)cc1	–	inactive: 1.42%
CCCn1c(SCC(N)=O)nc2c(c1=O)C1(CCCC1)Cc1ccccc1-2	inconclusive: 11.2 µM [inhibitor, single point]	–
CC(=O)Nc1ncc(Cc2cc(Cl)ccc2Cl)s1	inconclusive: 15.8 µM [inhibitor, single point]	–
COc1ccc(C(=O)NC(=S)Nc2ccc(N3CCN(C(C)=O)CC3)cc2)cc1[N+](=O)[O-]	inconclusive: 35.5 µM [inhibitor, single point]	–

Quoted at random: three entries already listed
SMILES	Potency	activity change, negative = inhibition
Cc1ccc(S(=O)(=O)N(C)C)cc1NC(=O)COC(=O)/C(=C/c1ccc(F)cc1)c1cccs1	inconclusive: 12.6 µM [activator, partial curve]	–
Clc1ccccc1-c1nccc(-n2ccnc2)n1	–	inactive: -21.9%
COc1cc2c(cc1OC)-c1cc(NC3CCCC3)nc(=O)n1CC2	inconclusive: 12.6 µM [inhibitor, single point]	–

(list continues)

SMILES	Potency	activity change, negative = inhibition
COC(=O)C1=C(Nc2ccc(C)cc2)C=C(C)C(C(=O)OC)C1c1ccc(OC)cc1 (centres undefined)	inconclusive: 8.91 µM [activator, partial curve]	–
Cc1ccnc(NC(=O)C2CCN(S(=O)(=O)c3ccc4c(c3)CC(C)N4C(=O)C3CCC3)CC2)c1 (centres undefined)	inconclusive: 20 µM [activator, partial curve]	–
Cc1noc(C)c1COC(=O)c1ccc2c(c1)OCCO2	inconclusive: 35.5 µM [activator, single point]	–
Cc1cc(Cl)ccc1C(=O)C1CCCN(C(=O)c2n[nH]c3c2CCCC3)C1 (centres undefined)	inconclusive: 14.1 µM [activator, single point]	–
COc1ccc(CNC(=S)Nc2ccc(F)c(Cl)c2)cc1OC	active: 11.2 µM	–
Fc1cccc(Cl)c1/C=N/Nc1ccccn1	inconclusive: 35.5 µM [inhibitor, single point]	–
CCN(CC)S(=O)(=O)c1ccc(NC2c3ccccc3C(=O)N2Cc2ccco2)cc1 (centres undefined)	inconclusive: 35.5 µM [activator, single point]	–
CCn1cc(/C=N/NS(=O)(=O)c2ccc(C)cc2)c(C)n1	inconclusive: 14.1 µM [activator, single point]	–
Cc1nc(NC(=O)COc2ccc(Cl)cc2)sc1C(=O)N(C)C	inconclusive: 15.8 µM [activator, partial curve]	–
CC(=O)Cc1nsc(NC(=O)c2ccc(-c3cccc(Cl)c3)o2)n1	–	inactive: 1.37%
O=C(NCc1ccccc1)c1ccc(-c2ccccc2C(F)(F)F)o1	inconclusive: 35.5 µM [activator, single point] and inconclusive: 35.5 µM [activator, partial curve]	–
O=C(N/N=C/c1ccc2cccnc2c1)c1ccco1	inconclusive: 8.91 µM [inhibitor, partial curve]	–
Cn1nc(C(=O)Nc2ccc3c(c2)OCCO3)cc1C(=O)O	–	inactive: -44.6%
CCOC(=O)C1=C(C)c2ccccc2OC1(C(=O)OCC)C(C)C (centres undefined)	inconclusive: 44.7 µM [activator, single point]	–
CCOC(=O)c1ccc(N2C(=O)C3C(C2=O)C(C(=O)c2ccc(Cl)cc2)N2CCCC32)cc1 (centres undefined)	inconclusive: 35.5 µM [inhibitor, single point]	–
CCC(=O)NC(=S)Nc1ccc(-c2nc3ccccc3s2)cc1	active: 1.58 µM	–
CCOc1ccc(C(=O)O/N=C(\N)c2ccccn2)cc1	active: 4.47 µM	–
CC(=O)Nc1cccc(/C(C)=N/NC(=O)c2c(-c3ccccc3Cl)noc2C)c1	inconclusive: 3.55 µM [activator, partial curve]	–
CC(C(Sc1ccccc1N)c1ccccc1)[N+](=O)[O-] (centres undefined)	inconclusive: 17.8 µM [inhibitor, single point]	–
COc1ccc(NC(=O)c2cc(C(C)C)on2)c(OC)c1	inconclusive: 1.12 µM [activator, partial curve, poor fit]	–
COc1cc(/C=C(\C#N)C(=O)Nc2cccc(C(=O)O)c2)ccc1OCc1ccc(F)cc1	–	inactive: 29.8%
CCC(CC)c1nnc(NC(=O)c2nc3nc(C)cc(C)n3n2)s1	–	inactive: -21.4%
O=C(NNC(=O)c1csc(-c2cnccc2C(F)(F)F)n1)c1ccc(C(F)(F)F)cc1	inconclusive: 10 µM [inhibitor, partial curve]	–
